Experiment [1] deals with Voltage-Dependent Anion Channel (VDAC) isolated from rat liver mitochondria (rat). The experiment can be described thus: single-channel electrophysiology, open-channel current noise.
Experiment [2] has the same target. Described as above. The source holds these as a separate data set.

Where two headings read alike, the source gives them in different places. Results are given in words; binding and its absence hold for the method and conditions named. Binding calls can cover weak binding; strength is not graded here.

Take MIASHLLAYFFTELN [HK2p, the 15 amino acid N-terminal peptide of human hexokinase-2]: the binding result in experiment [1] and in experiment [2] was “binds” throughout.

For the origin of these results see publication doi:10.1101/2022.04.07.487541.
